Test results taken from patent US20100322938A1 (COMPUGEN, published 2010).
These are yes or no findings as the source states them, for the method shown. Some binding calls cover weakened binding; strength is not graded here.

By UniProt entry, the sequences of proteins in these tests, tags left out. Where a name states a change or a piece, a line headed by the entry shows the natural chain unless it says otherwise.
UniProt P10909: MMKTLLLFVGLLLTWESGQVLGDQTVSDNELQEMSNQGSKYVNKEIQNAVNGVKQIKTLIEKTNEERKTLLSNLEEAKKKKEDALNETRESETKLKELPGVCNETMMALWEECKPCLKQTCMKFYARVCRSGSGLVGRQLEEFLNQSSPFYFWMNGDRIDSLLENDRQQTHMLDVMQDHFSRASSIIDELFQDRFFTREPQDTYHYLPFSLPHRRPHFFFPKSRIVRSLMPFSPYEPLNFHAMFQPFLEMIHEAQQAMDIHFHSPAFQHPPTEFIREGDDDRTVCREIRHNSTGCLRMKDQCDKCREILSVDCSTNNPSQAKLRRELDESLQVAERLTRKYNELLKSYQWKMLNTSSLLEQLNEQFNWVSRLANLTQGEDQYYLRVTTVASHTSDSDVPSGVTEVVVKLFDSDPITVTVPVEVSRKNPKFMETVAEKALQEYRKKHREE

Molecular target: recombinant human clusterin (Biovendor, cat no: RD172034100) (human) (UniProt P10909)
Assay: SPR (BIAcore), clusterin immobilized on CM5 chip (2000 RU), CGEN-CL1 injected at 312-5000 nM

- binding: binds
B1: CGEN-CL1 peptide … [SEQ ID NO: 1] (peptide)
peptide: FYFWMNGDRIDSLLENDRQQT
modifications: acetylated at its N-terminus; amidated at its C-terminus
